# In PMC9569790, “From Solution Studies of Pharmaceuticals (Aspirin and Related Compounds) to the Thermodynamics of Aspirin-β-Cyclodextrin Interaction in water and N,N-Dimethylformamide” (International Journal of Molecular Sciences, 2022):
# Where two headings read alike, the source gives them in different places. Marks after values point to notes of the source that are not given here.
# Legend:
# [1] = Interaction of acetylsalicylic acid with β-cyclodextrin in water (titration calorimetry); type: binding; details: 298 K
# [2] = Interaction of acetylsalicylic acid with β-cyclodextrin in DMF (titration calorimetry); type: binding; details: nonionized guest, 298 K
# [3] = set-up: method as in PMID 16509753; details: water, 298 K, cited from earlier work
structure (smiles),measurement,setting,value
"CC(=O)Oc1ccccc1C(=O)O [acetylsalicylic acid, reference compound]",ΔassH^0,"[1]; pH 1.75, nonionized guest",0 ^b kJ mol^−1
same,ΔassS^0,"[1]; pH 1.75, nonionized guest",52 ^b JK^−1 mol^−1
same,ΔcH^0,"[1]; pH 6.00, ionized guest",0^b kJ mol^−1
same,ΔcS^0,"[1]; pH 6.00, ionized guest",33 ^b JK^−1 mol^−1
same,ΔassG^0,[2],−26.6 ^b kJ mol^−1
same,ΔassH^0,[2],0.15 ± 0.03 ^b kJ mol^−1
same,ΔassS^0,[2],89 ^b JK^−1 mol^−1
same,ΔassG^0,"[3]; pH 1.75, nonionized guest, calculated from Kass of ref 15",−15.64 ^a kJ mol^−1
same,ΔcG^0,"[3]; pH 6.00, ionized guest, calculated from Ks of ref 15",−9.76 ^a kJ mol^−1
